Reference: PMC3082566, “PTB Domain-Directed Substrate Targeting in a Tyrosine Kinase from the Unicellular Choanoflagellate Monosiga brevicollis” (PLoS ONE, 2011)
Results are given in words; binding and its absence hold for the method and conditions named. For some of these results: Binding can be weak; no strength is given. For some of these results: Binding seen in cells or lysates may run through a third protein.

Tests used:
[1] = molecular target: T1, pYEEI peptide (EPQpYEEIG); test: pull-down; lysates of SYF cells expressing FLAG-tagged wild-type or ΔPTB HMTK1 incubated with immobilized pYEEI peptide, phospho-Kemptide or control resin; anti-FLAG Western blotting; only the target purified
T1 sequence (peptide, phosphotyrosine (pY, fourth residue of the printed letters)): EPQYEEIG

[2] = molecular target: T1, pYEEI peptide (EPQpYEEIG); test: pull-down; peptide linked to Affi-Gel 15 resin; purified HMTK1, c-Src or isolated GST-PTB incubated 1 hour at 4°C; washed 4 times with binding buffer (50 mM Tris-HCl pH 7.5, 5 mM EDTA, 100 mM NaCl, 0.1% Triton X-100, 1 mM DTT, 0.5 mM Na3VO4); bound protein seen by Coomassie staining or Western blotting (anti-GST, anti-His6); both purified
[3] = molecular target: T2, PTB ligand-containing substrate (…pYATLG); test: as above
T2 sequence (peptide, phosphotyrosine (pY, residue 20 of the printed letters)): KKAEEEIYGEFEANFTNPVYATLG

Substance | binding [1] | binding [2] | binding [3]
FLAG-tagged ΔPTB form of HMTK1 (Monosiga brevicollis) (domain or fragment) | no binding | – | –
GST fusion of the isolated third PTB domain of HMTK1 (residues 341-474) (Monosiga brevicollis) (domain or fragment) | – | binds | –
His-tagged HMTK1 PTB-kinase construct (residues 341-761) (Monosiga brevicollis) (enzyme) | – | binds | binds
